Here are results for 37 targets from the supplement of paper PMC6411743.

Amino acid sequences for entries named in this document (tags omitted). A change or cut given only in a name is not applied to a line headed by its entry.
UniProt P00367: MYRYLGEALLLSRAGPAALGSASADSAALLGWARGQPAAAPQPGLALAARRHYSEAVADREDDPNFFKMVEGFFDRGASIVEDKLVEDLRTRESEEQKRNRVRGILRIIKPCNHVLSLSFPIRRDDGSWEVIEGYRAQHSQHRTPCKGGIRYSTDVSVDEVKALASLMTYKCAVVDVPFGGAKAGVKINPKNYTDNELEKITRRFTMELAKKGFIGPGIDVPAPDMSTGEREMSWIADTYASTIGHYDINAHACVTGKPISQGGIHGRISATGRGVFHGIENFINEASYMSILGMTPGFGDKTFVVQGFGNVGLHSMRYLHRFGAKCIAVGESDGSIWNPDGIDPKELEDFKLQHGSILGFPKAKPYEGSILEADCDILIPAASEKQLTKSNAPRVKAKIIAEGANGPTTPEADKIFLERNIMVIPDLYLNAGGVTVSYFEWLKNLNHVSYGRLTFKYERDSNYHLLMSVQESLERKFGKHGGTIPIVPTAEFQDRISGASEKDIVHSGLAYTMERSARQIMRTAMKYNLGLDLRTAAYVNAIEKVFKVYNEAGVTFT
UniProt P10301: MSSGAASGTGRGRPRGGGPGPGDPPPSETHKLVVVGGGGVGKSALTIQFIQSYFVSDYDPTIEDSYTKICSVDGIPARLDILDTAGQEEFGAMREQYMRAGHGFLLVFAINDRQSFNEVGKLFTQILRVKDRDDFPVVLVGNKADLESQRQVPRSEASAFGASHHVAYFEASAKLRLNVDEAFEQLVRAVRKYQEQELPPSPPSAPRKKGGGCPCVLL
UniProt P10747, whole entry: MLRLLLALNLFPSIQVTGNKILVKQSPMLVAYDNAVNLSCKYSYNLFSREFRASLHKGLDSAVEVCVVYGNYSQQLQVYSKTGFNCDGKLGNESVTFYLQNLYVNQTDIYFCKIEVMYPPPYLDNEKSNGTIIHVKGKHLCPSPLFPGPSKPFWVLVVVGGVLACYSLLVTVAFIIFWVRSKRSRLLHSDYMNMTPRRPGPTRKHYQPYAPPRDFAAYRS
UniProt P10109: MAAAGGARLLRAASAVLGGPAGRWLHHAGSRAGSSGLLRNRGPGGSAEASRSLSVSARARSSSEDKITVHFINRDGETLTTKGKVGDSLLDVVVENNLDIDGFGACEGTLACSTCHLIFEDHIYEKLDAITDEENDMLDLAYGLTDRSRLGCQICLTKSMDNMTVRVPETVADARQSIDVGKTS
UniProt P11021: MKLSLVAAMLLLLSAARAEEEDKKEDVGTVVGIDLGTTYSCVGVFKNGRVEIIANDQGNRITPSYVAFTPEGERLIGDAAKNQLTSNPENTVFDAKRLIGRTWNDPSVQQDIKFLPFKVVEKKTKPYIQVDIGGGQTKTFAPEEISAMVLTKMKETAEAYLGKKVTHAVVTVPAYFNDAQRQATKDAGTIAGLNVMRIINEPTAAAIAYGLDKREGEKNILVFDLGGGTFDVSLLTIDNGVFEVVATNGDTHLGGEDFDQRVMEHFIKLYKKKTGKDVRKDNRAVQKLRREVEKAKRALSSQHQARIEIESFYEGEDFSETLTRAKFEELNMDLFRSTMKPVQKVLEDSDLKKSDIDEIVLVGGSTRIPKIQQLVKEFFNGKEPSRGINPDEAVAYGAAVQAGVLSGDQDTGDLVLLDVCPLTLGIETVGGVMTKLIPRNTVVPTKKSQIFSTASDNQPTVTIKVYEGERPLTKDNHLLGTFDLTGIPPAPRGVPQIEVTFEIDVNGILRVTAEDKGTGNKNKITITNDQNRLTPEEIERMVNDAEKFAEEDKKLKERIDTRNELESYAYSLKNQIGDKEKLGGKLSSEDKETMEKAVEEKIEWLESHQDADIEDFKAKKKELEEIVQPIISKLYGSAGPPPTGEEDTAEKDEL
UniProt P02792: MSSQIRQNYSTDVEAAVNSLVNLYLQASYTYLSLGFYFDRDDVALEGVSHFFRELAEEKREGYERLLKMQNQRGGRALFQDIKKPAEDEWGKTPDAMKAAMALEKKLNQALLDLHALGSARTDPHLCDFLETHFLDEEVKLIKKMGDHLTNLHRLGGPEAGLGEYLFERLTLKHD
UniProt P00966: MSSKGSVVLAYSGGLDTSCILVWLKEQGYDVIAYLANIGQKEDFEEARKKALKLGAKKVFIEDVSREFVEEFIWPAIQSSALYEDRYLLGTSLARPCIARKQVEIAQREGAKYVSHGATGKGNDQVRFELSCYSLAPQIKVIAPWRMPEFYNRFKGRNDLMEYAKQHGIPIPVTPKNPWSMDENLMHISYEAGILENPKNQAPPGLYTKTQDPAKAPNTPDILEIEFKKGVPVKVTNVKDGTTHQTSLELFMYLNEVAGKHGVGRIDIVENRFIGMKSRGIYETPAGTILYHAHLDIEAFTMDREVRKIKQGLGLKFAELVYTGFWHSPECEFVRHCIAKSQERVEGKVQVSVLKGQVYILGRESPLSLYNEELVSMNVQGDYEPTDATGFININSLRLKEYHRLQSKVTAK
UniProt P00441, whole entry: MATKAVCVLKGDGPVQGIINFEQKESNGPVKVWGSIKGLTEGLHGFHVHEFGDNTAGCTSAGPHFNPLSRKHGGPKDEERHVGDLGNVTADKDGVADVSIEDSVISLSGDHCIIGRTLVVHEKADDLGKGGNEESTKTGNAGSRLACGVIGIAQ
UniProt P04843: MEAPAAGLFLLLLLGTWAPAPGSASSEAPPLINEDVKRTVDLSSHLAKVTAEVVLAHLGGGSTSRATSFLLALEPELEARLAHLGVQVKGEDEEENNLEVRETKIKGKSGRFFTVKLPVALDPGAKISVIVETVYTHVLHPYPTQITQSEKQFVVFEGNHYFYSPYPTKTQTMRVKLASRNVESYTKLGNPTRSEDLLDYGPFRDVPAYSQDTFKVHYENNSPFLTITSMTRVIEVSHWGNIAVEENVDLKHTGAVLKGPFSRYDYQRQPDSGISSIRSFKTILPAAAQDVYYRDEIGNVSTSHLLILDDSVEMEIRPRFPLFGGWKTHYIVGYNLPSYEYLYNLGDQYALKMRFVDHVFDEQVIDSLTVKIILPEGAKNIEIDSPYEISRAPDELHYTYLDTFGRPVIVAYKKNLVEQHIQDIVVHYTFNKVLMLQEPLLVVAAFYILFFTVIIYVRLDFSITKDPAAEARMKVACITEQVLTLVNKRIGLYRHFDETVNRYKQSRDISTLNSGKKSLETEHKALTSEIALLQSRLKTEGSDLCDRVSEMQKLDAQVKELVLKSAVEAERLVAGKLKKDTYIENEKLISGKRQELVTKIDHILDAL
UniProt P12236: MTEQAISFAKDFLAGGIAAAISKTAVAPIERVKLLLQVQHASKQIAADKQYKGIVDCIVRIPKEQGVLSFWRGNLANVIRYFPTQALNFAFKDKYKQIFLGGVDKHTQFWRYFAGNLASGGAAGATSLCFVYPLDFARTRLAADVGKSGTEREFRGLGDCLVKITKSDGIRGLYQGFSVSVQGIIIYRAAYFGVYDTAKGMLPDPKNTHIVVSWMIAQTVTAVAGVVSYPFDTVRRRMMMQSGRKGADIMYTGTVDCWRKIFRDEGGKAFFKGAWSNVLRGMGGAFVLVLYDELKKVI
UniProt P13612, whole entry: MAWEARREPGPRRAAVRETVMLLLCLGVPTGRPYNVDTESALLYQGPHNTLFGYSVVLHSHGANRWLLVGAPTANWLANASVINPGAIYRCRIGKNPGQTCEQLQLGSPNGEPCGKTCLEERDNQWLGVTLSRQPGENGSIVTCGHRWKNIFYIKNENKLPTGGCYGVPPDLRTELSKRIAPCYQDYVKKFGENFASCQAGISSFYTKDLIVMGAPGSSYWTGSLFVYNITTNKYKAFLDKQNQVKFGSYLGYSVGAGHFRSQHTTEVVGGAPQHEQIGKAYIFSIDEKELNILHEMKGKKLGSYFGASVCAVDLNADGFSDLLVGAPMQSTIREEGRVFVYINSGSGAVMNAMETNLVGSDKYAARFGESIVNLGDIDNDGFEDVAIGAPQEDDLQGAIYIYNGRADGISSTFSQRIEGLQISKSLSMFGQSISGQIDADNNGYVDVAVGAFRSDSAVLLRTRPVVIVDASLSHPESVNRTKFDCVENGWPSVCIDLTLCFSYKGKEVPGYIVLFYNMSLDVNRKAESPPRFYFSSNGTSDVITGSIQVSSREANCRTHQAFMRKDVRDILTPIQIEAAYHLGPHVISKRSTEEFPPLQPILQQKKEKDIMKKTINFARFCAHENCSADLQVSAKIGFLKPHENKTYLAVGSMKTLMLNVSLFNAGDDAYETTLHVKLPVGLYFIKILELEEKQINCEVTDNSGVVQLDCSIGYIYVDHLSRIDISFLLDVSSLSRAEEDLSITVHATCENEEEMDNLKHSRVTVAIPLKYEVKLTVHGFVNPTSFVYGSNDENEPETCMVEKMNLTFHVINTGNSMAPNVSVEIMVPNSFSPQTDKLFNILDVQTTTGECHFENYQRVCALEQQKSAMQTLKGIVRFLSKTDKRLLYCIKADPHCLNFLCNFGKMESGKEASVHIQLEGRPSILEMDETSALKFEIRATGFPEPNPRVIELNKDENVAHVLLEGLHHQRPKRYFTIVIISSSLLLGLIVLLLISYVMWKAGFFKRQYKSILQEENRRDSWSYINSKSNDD
UniProt P13807: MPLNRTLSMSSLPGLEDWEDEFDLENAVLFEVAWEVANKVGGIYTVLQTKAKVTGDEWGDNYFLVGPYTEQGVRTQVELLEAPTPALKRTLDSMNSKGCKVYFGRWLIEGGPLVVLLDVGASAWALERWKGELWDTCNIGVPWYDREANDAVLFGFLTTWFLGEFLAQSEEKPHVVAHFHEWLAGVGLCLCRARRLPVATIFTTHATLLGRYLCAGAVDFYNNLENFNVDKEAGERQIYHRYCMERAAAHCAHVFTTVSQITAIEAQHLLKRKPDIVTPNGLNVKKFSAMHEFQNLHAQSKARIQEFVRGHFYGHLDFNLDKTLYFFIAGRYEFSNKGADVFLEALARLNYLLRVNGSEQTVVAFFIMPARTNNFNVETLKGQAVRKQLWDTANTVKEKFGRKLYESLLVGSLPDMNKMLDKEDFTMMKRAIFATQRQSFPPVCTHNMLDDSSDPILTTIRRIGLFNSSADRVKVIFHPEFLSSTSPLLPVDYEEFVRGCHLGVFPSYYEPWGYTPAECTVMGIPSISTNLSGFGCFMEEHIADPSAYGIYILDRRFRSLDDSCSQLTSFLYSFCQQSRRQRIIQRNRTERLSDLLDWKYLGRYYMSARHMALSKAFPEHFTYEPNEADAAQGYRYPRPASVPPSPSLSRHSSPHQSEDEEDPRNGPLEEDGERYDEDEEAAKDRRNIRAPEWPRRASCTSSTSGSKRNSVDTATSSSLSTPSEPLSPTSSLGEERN
UniProt O96011: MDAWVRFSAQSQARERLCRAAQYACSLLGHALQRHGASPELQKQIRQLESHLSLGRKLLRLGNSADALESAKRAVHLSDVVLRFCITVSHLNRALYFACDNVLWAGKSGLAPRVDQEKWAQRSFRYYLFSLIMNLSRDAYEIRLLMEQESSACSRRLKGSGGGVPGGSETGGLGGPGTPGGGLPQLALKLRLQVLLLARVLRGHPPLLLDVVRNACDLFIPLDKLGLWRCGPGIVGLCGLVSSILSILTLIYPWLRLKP
UniProt P09651: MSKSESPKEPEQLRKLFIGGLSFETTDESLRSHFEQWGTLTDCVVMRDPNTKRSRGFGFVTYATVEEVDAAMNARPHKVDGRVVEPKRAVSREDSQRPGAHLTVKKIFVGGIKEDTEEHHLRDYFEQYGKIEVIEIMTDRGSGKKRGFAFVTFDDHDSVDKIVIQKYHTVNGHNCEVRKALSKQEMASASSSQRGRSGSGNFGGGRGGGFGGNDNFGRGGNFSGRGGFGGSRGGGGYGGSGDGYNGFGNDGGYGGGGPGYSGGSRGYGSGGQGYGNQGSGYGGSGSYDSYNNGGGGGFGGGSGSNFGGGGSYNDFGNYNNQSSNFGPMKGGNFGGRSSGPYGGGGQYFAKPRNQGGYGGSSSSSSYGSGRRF
UniProt P14854, whole entry: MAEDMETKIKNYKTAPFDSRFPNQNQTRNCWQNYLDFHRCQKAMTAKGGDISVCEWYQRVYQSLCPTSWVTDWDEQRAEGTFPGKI
UniProt P02794, whole entry: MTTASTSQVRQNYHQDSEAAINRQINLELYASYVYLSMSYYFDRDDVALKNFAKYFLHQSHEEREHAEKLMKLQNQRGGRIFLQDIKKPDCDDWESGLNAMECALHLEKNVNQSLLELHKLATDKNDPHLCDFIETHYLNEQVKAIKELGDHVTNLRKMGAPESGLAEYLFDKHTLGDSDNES
UniProt O96019, whole entry: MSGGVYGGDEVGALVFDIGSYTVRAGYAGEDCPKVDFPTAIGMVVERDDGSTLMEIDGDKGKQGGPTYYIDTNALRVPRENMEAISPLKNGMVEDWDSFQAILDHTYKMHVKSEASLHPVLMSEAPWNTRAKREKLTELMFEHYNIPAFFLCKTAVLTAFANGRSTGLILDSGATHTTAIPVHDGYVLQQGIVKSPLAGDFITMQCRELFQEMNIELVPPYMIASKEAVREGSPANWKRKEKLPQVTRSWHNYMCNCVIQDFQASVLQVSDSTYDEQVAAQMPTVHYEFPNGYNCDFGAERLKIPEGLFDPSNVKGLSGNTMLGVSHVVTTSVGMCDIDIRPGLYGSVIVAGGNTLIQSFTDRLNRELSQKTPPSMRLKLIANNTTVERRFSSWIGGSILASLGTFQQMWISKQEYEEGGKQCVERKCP

± gives the standard deviation of the averaged measurements. The entries are a selection whose mix differs from that of the whole data set. Most values lie at the level of the controls, where differences are scatter.

Compound in one experiment: Nc1ncnc2c1ncn2[C@@H]1O[C@H](COP(=O)(O)OP(=O)(O)OP(=O)(O)O)[C@@H](O)[C@H]1O [adenosine triphosphate]
Kind of experiment: NP40-soluble protein abundance relative to vehicle (solubility fold change) (ratio); higher = more soluble protein in presence of ATP. Particulars: concentration: 0.1mM. Put shortly: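 Jurkat crude lysate prepared with a Dounce homogeniser was treated at eight concentrations spanning 0.1 to 10 mM, 10 min at room temperature then 3 min at 37 °C. Solubilisation with 0.8% NP40 and benzonase and ultracentrifugation preceded TMT labelling of the supernatant for LC-MS/MS. Fold change against the detergent-processed vehicle was determined per replicate from vsn-normalised intensities, across three independent experiments.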
With PDIA4 (UniProt P13667), the NP40-soluble protein abundance was 1.01 ± 0.041.

For UniProt P05106, the NP40-soluble protein abundance came to 0.989 ± 0.079.

Turning to VAV1 (UniProt P15498), the NP40-soluble protein abundance was determined as 1.06 ± 0.095.

As to HNRNPL (UniProt P14866), the NP40-soluble protein abundance turned out to be 1.03 ± 0.05.

With SLC2A1 (UniProt P11166), the NP40-soluble protein abundance was 0.957 ± 0.054.

As to UniProt P06756 and related entries, the NP40-soluble protein abundance came out at 0.987 ± 0.053.

For the target UniProt P01733, the NP40-soluble protein abundance came out at 1.06 ± 0.039.

With GLUD1 (UniProt P00367), the NP40-soluble protein abundance is 0.945 ± 0.092.

As to ZBED1 (UniProt O96006), the NP40-soluble protein abundance worked out at 1 ± 0.018.

As for OAT (UniProt P04181), the NP40-soluble protein abundance was 1.02 ± 0.027.

RB1 (UniProt P06400): the NP40-soluble protein abundance amounted to 0.997 ± 0.038.

Consider UniProt P05165 and related entries, for which the NP40-soluble protein abundance was 1.03 ± 0.033.

For the target RRAS (UniProt P10301), the NP40-soluble protein abundance was 1.73 ± 0.62.

Turning to UniProt P10747 and related entries, the NP40-soluble protein abundance came to 0.929 ± 0.017.

Consider UniProt P06239 and related entries, for which the NP40-soluble protein abundance is 1.05 ± 0.043.

For FDX1 (UniProt P10109), the NP40-soluble protein abundance stood at 0.936 ± 0.05.

In the case of HSPA5 (UniProt P11021), the NP40-soluble protein abundance was 0.962 ± 0.031.

In the case of UniProt P14859-5|P14859-6, the NP40-soluble protein abundance turned out to be 0.899 ± 0.044.

For the target UniProt P02792 and related entries, the NP40-soluble protein abundance came out at 0.899 ± 0.17.

For TTC4 (UniProt O95801), the NP40-soluble protein abundance was determined as 1.01 ± 0.022.

With ASS1 (UniProt P00966), the NP40-soluble protein abundance was found to be 1.03 ± 0.054.

SOD1 (UniProt P00441): the NP40-soluble protein abundance turned out to be 0.912 ± 0.033.

For the target RPN1 (UniProt P04843), the NP40-soluble protein abundance is 1.02 ± 0.038.

Take SLC25A6 (UniProt P12236): the NP40-soluble protein abundance stood at 0.918 ± 0.033.

In the case of UniProt P11802 and related entries, the NP40-soluble protein abundance is 1 ± 0.12.

Turning to ITGA4 (UniProt P13612), the NP40-soluble protein abundance came to 0.959 ± 0.016.

Consider DLD (UniProt P09622), for which the NP40-soluble protein abundance was determined as 1.02 ± 0.023.

Consider “P0C0S8 and related entries (UniProt Q99878+Q96KK5+Q93077+Q6FI13+P0C0S8)”, for which the NP40-soluble protein abundance was determined as 0.783 ± 0.28.

Take PLS3 (UniProt P13797): the NP40-soluble protein abundance was 1.05 ± 0.021.

For the target UniProt P13807 and related entries, the NP40-soluble protein abundance worked out at 1.02 ± 0.22.

For the target UniProt O96011 and related entries, the NP40-soluble protein abundance amounted to 0.935 ± 0.06.

For the target UniProt P09651 and related entries, the NP40-soluble protein abundance was 0.987 ± 0.072.

Take COX6B1 (UniProt P14854): the NP40-soluble protein abundance came to 0.88 ± 0.14.

On to TXNDC12 (UniProt O95881), for which the NP40-soluble protein abundance is 0.959 ± 0.029.

On to FTH1 (UniProt P02794), for which the NP40-soluble protein abundance came out at 0.949 ± 0.14.

For ACTL6A (UniProt O96019), the NP40-soluble protein abundance is 1.04 ± 0.064.

For the target UniProt P04075 and related entries, the NP40-soluble protein abundance is 1.02 ± 0.048.

Staying with this experiment, now noted: concentration: 0.5mM.
As for PDIA4 (UniProt P13667), the NP40-soluble protein abundance came out at 1.03 ± 0.066.

As to UniProt P05106, the NP40-soluble protein abundance is 0.945 ± 0.019.

For VAV1 (UniProt P15498), the NP40-soluble protein abundance came out at 1.04 ± 0.075.

Consider HNRNPL (UniProt P14866), for which the NP40-soluble protein abundance is 1.09 ± 0.056.

For SLC2A1 (UniProt P11166), the NP40-soluble protein abundance was 1 ± 0.022.

In the case of UniProt P06756 and related entries, the NP40-soluble protein abundance is 0.969 ± 0.091.

Take UniProt P01733: the NP40-soluble protein abundance was 0.964 ± 0.073.

For the target GLUD1 (UniProt P00367), the NP40-soluble protein abundance is 0.976 ± 0.07.

For ZBED1 (UniProt O96006), the NP40-soluble protein abundance is 0.992 ± 0.033.

With OAT (UniProt P04181), the NP40-soluble protein abundance turned out to be 1.02 ± 0.028.

With RB1 (UniProt P06400), the NP40-soluble protein abundance was 1.01 ± 0.034.

Take UniProt P05165 and related entries: the NP40-soluble protein abundance stood at 0.997 ± 0.04.

On to RRAS (UniProt P10301), for which the NP40-soluble protein abundance was found to be 1.01 ± 0.035.

As to UniProt P10747 and related entries, the NP40-soluble protein abundance is 0.959 ± 0.064.

UniProt P06239 and related entries: the NP40-soluble protein abundance was found to be 1.06 ± 0.016.

For FDX1 (UniProt P10109), the NP40-soluble protein abundance was determined as 0.927 ± 0.022.

In the case of HSPA5 (UniProt P11021), the NP40-soluble protein abundance stood at 0.971 ± 0.053.

In the case of UniProt P14859-5|P14859-6, the NP40-soluble protein abundance was 0.773 ± 0.051.

Consider UniProt P02792 and related entries, for which the NP40-soluble protein abundance was 0.89 ± 0.14.

On to TTC4 (UniProt O95801), for which the NP40-soluble protein abundance came to 1.01 ± 0.041.

For the target ASS1 (UniProt P00966), the NP40-soluble protein abundance came out at 1.02 ± 0.06.

Turning to SOD1 (UniProt P00441), the NP40-soluble protein abundance amounted to 0.879 ± 0.077.

With RPN1 (UniProt P04843), the NP40-soluble protein abundance is 1.04 ± 0.065.

Turning to SLC25A6 (UniProt P12236), the NP40-soluble protein abundance is 0.932 ± 0.036.

Turning to UniProt P11802 and related entries, the NP40-soluble protein abundance was found to be 1.03 ± 0.027.

As for ITGA4 (UniProt P13612), the NP40-soluble protein abundance amounted to 0.944 ± 0.046.

As to DLD (UniProt P09622), the NP40-soluble protein abundance was determined as 1.07 ± 0.052.

Take “P0C0S8 and related entries (UniProt Q99878+Q96KK5+Q93077+Q6FI13+P0C0S8)”: the NP40-soluble protein abundance was found to be 0.607 ± 0.27.

For the target PLS3 (UniProt P13797), the NP40-soluble protein abundance came out at 0.942 ± 0.0073.

As for UniProt P13807 and related entries, the NP40-soluble protein abundance is 0.974 ± 0.17.

As for UniProt O96011 and related entries, the NP40-soluble protein abundance amounted to 0.929 ± 0.1.

UniProt P09651 and related entries: the NP40-soluble protein abundance is 1.07 ± 0.063.

On to COX6B1 (UniProt P14854), for which the NP40-soluble protein abundance worked out at 0.806 ± 0.16.

With TXNDC12 (UniProt O95881), the NP40-soluble protein abundance came out at 0.986 ± 0.053.

On to FTH1 (UniProt P02794), for which the NP40-soluble protein abundance was determined as 0.963 ± 0.14.

For ACTL6A (UniProt O96019), the NP40-soluble protein abundance was 1.09 ± 0.062.

UniProt P04075 and related entries: the NP40-soluble protein abundance was determined as 1.02 ± 0.051.
